Results deposited as PubChem BioAssay AID1259308 (NCATS, 2017).

Assay: 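Genes whose loss raises luciferase production in HEK293 cells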 (primary screen)
Cells: human HEK293 embryonic kidney cells stably expressing firefly luciferase (HEK-CMV-Luc2-Hygro)
Reagents: single siRNA against human genes, 0.8 pmol siRNA per well
Timing: 72 h
Measured: 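Luciferase light (ONE-Glo) measured on one replicate plate set and viability (CellTiter-Glo) on the other, scaled to a negative control siRNA, with robust z-scores and luciferase per cell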
Direction: total luciferase, z-score: higher = more reporter protein produced
Rule for the call: 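Active when the median/MAD z-score for overall luciferase is greater than 3; a gene was taken forward for validation with new siRNAs if at least two of its three siRNAs passed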
Calls: active = raised luciferase; inactive = no rise
In all, the deposit lists about 59,000 reagents; shown is a random part of them. In the full data, about 1,510 (2.6%) were called active. 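Calls use total luciferase alone and ignore viability, so some active siRNAs may act by altering cell number.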 Entries without a mark were called inactive. Reagents against one gene are numbered here. Further read-outs or replicates are left out here.

total luciferase, z-score, by gene and reagent
MIR503HG (GeneID 84848): #1 2.81; #2 2.56; #3 -0.73
OR5M3 (GeneID 219482): #1 0.296; #2 1.14; #3 -0.0526
EXOC3L2 (GeneID 90332): #1 0.781; #2 -0.056; #3 -0.758
SKIL (GeneID 6498): #1 4.87 (active); #2 0.209; #3 -0.33
ADISSP (GeneID 54976): #1 -0.677; #2 0.729; #3 -0.042
CYB561D2 (GeneID 11068): #1 -1.12; #2 3.08 (active); #3 -0.858
CIAO1 (GeneID 9391): #1 0.557; #2 -0.576; #3 0.274
CREB3L4 (GeneID 148327): #1 -0.609; #2 0.878; #3 -1.79
TIE1 (GeneID 7075): #1 0.638; #2 -0.0471; #3 0.538
CRYBG3 (GeneID 131544): #1 0.904; #2 -0.366; #3 -1.01
WSCD1 (GeneID 23302): #1 1.02; #2 -1.74; #3 0.118
REN (GeneID 5972): #1 -1.04; #2 -0.665; #3 0.212
GHRHR (GeneID 2692): #1 2.24; #2 0.15; #3 0.858

Ordered by “total luciferase, z-score” (lowest first): some entries from above.
gene	siRNA no.	total luciferase, z-score
WSCD1 (GeneID 23302)	2	-1.74
CRYBG3 (GeneID 131544)	3	-1.01
CRYBG3 (GeneID 131544)	2	-0.366
TIE1 (GeneID 7075)	2	-0.0471
WSCD1 (GeneID 23302)	3	0.118
TIE1 (GeneID 7075)	3	0.538
TIE1 (GeneID 7075)	1	0.638
CRYBG3 (GeneID 131544)	1	0.904
WSCD1 (GeneID 23302)	1	1.02

Next reagents follow:
total luciferase, z-score, by gene and reagent
IRF6 (GeneID 3664): #1 0.776; #2 -0.323; #3 0.859
SDHAF1 (GeneID 644096): #1 0.19; #2 -0.527; #3 1.07
LRRC49 (GeneID 54839): #1 -0.02; #2 -0.766; #3 0.453
LAPTM4BP1 (GeneID 645900): #1 1.55; #2 -0.766; #3 -0.422
CSNK1A1L (GeneID 122011): #1 0.577; #2 -0.303; #3 -0.3
DBF4 (GeneID 10926): #1 0.62; #2 -0.665; #3 -1.2
ITPRIPL2 (GeneID 162073): #1 4.45 (active); #2 -0.377; #3 0.808
OR2T34 (GeneID 127068): #1 -0.185; #2 -0.576; #3 -0.514
SOD3 (GeneID 6649): #1 -0.0107; #2 0.221; #3 -0.121
RUBCN (GeneID 9711): #1 0.588; #2 -0.314; #3 -0.93
FOXG1 (GeneID 2290): #1 0.197; #2 1.26; #3 0.823
ZNF320 (GeneID 162967): #1 0.768; #2 0.408; #3 0.231
